These are yes or no findings as the source states them, for the method shown. Binding seen in cells or lysates may run through a third protein. Some results given as binding are weak or reduced against the parent protein; the word gives no strength. For part of these data: Tags and fused reporters may be left off the sequences shown.

Protein sequences, listed by entry. Tags and fused reporters are not part of them.
UniProt Q04735: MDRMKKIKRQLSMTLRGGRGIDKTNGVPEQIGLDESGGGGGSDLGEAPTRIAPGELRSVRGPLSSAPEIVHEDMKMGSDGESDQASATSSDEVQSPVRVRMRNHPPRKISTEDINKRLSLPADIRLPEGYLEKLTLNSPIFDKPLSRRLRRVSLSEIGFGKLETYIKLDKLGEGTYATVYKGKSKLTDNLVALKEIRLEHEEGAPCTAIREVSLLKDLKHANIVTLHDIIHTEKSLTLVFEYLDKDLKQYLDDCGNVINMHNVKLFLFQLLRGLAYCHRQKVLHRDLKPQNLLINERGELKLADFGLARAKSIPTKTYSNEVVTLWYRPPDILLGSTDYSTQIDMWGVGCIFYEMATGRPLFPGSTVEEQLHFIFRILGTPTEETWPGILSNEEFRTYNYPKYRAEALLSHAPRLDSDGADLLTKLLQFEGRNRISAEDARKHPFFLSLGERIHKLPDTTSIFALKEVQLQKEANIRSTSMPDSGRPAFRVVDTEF

Assay [1] has as its target T1, cyclin Y (endogenous, mouse brain and testis) (mouse (endogenous in brain and testis)) (UniProt Q8BGU5).
T1 sequence: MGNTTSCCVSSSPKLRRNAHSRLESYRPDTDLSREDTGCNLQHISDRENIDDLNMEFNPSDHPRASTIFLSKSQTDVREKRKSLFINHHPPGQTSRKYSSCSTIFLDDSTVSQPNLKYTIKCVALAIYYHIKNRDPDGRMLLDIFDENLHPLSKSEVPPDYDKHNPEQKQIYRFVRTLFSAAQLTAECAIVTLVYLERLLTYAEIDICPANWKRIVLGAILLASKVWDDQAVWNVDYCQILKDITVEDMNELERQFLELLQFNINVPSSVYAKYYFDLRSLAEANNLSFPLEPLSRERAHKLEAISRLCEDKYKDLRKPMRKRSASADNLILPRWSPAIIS
As to the kind of experiment: co-IP; endogenous proteins from 1 mg mouse brain or testis lysate; anti-PCTAIRE-1 G6.1 or anti-cyclin Y (S206D) with protein G-Sepharose, 1 h at 4 °C; washed with lysis buffer + 0.15 M NaCl and Buffer A; immunoblot; rabbit IgG as control. On the technique in general: In western blotting, separated proteins are transferred to a membrane and probed.

Assay [2] addresses PCTAIRE-1 (endogenous, mouse brain and testis) (mouse (endogenous in brain and testis)) (UniProt Q04735). The assay is described as above.
In a further assay the target is T2, FLAG-NUAK1 (UniProt O60285).
T2 sequence: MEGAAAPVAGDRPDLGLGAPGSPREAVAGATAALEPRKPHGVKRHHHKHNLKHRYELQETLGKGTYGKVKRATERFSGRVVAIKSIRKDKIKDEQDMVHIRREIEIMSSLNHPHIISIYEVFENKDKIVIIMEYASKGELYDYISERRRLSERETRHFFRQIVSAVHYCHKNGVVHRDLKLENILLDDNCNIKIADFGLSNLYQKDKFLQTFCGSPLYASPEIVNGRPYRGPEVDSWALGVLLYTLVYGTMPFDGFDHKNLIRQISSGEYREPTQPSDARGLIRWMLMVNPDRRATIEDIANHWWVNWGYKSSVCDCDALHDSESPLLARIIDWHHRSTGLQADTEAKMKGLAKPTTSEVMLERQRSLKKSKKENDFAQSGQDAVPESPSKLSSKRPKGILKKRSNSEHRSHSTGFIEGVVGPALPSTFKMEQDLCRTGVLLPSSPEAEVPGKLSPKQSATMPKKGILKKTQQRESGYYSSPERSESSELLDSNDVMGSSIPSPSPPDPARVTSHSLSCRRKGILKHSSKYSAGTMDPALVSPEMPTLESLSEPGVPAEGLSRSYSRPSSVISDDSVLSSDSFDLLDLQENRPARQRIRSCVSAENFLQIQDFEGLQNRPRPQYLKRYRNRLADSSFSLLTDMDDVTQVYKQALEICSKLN
Kind of assay: co-IP; HEK293 co-transfected with FLAG- and HA-tagged constructs; FLAG M2- or HA-agarose; washed with lysis buffer + 0.15 M NaCl and Buffer A; immunoblot.

On to “PCTAIRE-1 (endogenous, mouse brain and testis) (from UniProt Q04735 1-496)”, for which, in assay [1], the binding result is “binds”.

B1: cyclin Y (endogenous, mouse brain and testis) (protein, UniProt Q8BGU5 1-341)
chain: MGNTTSCCVSSSPKLRRNAHSRLESYRPDTDLSREDTGCNLQHISDRENIDDLNMEFNPSDHPRASTIFLSKSQTDVREKRKSLFINHHPPGQTSRKYSSCSTIFLDDSTVSQPNLKYTIKCVALAIYYHIKNRDPDGRMLLDIFDENLHPLSKSEVPPDYDKHNPEQKQIYRFVRTLFSAAQLTAECAIVTLVYLERLLTYAEIDICPANWKRIVLGAILLASKVWDDQAVWNVDYCQILKDITVEDMNELERQFLELLQFNINVPSSVYAKYYFDLRSLAEANNLSFPLEPLSRERAHKLEAISRLCEDKYKDLRKPMRKRSASADNLILPRWSPAIIS
For B1, the binding result in assay [2] is on record as “binds”.

B2: HA-cyclin Y (natural protein, human, UniProt Q8ND76-1 1-341, looked up)
chain: MGNTTSCCVSSSPKLRRNAHSRLESYRPDTDLSREDTGCNLQHISDRENIDDLNMEFNPSDHPRASTIFLSKSQTDVREKRKSLFINHHPPGQIARKYSSCSTIFLDDSTVSQPNLKYTIKCVALAIYYHIKNRDPDGRMLLDIFDENLHPLSKSEVPPDYDKHNPEQKQIYRFVRTLFSAAQLTAECAIVTLVYLERLLTYAEIDICPANWKRIVLGAILLASKVWDDQAVWNVDYCQILKDITVEDMNELERQFLELLQFNINVPSSVYAKYYFDLRSLAEANNLSFPLEPLSRERAHKLEAISRLCEDKYKDLRRSARKRSASADNLTLPRWSPAIIS
As for B2, the binding result with FLAG-NUAK1 is recorded as “no binding”.

These data come from publication PMC3590450, “Analysis of substrate specificity and cyclin Y binding of PCTAIRE-1 kinase” (Cellular Signalling, 2012).
